The nature of the data set: Electrochemical hydrogen production from protons, catalyst adsorbed onto Vulcan XC72R carbon. The note with it: protons to hydrogen gas, 0.5 M H2SO4 under N2. As to the method: Inks of the corrole-containing carbons were prepared by mixing 1 mg from the solid mixtures described above, with 0.2 mL isopropanol, 0.8 mL H2O, and 10 μL of Nafion, followed by sonication for 20 min. Small quantities (5 μl) of this kind of inks were dropped on the surface of glassy carbon electrodes (GC), followed by drying the modified electrodes for 40 min at 45° C. This process was repeated once more for each electrode and also for the ink prepared from non-modified Vulcan XC72R. The performance of the electrode prepared from the latter was checked relative to the electrodes modified by (cor)Co(PPh3) and (cor)Mo(O), by examining the electrocatalytic hydrogen production from protons (FIG. 3).
Electrochemical hydrogen production was performed using 0.5 M H2SO4 solution under N2 by (cor)CoPPh3 and (cor)Mo(O) catalysts adsorbed onto Vulcan XC72R carbon as the solid support. Ag/AgCl and Pt wire were used as reference and counter electrodes, respectively.

Here are results for 1 substance from US20240083920A1, “LOW MOLECULAR WEIGHT CORROLE COMPOSITIONS” (TECHNION RESEARCH & DEVELOPMENT FOUNDATION LTD, priority 2021, published 2024).

(oxo)Molybdenum(V) Corrole [(cor)Mo(O)]: the “Faradaic Efficiency (FE)” value was 92% and the “overpotential relative to 20% Pt” value stood at 280 mV.
